PubChem BioAssay AID504764 – Drosophila RNAi Screening Center – 2011

Screen: 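Genes whose knock-down alters Notch-dependent transcription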 (primary screen)
Cells: Drosophila Kc167 cells
Knock-down reagent: long dsRNA against Drosophila genes
Time to read-out: about 5 days (4 days dsRNA, then 24 h after transfection)
Conditions: transfection of constitutively active membrane-tethered Notch lacking the extracellular domain, read 24 h later
Read-out: 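Light from a Notch-responsive E(spl)m3 luciferase reporter under active Notch, with control-promoter and no-Notch reporter wells to normalise; raw counts from paired wells a and b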
Direction: induced reporter light, run 1, well a and induced reporter light, run 1, well b: higher = more light from the Notch target reporter with active Notch; control promoter light, run 1, well a and control promoter light, run 1, well b: higher = more light from the viral control promoter (cell number, transfection, viability); uninduced reporter light, run 1, well a: higher = more light from the Notch target reporter without active Notch
Call rule: 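Hit if the duplicate-averaged log2 ratio of induced to control-promoter light gives a plate-wise z beyond ±2, or induced to uninduced beyond ±1.8; weak-control or discordant-duplicate wells dropped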
Meaning of the calls: active = modifier hit (raised or lowered Notch signal); inactive = not a hit
In all, the deposit lists about 22,000 reagents; shown is a random part of those that have a named target and a result. Over the whole deposit, 403 (1.9%) got an active call. 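Unnormalised raw counts per well; ratio z-scores behind the hit calls and whether each hit raises or lowers signal are not deposited.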 The numbers tell different reagents against one gene apart. Reagent sequences are not shown. Not stated in the record: the amount of reagent.

Hpd | induced reporter light, run 1, well a: 1.54e5; induced reporter light, run 1, well b: 1.20e5; control promoter light, run 1, well a: 73360; control promoter light, run 1, well b: 79480; uninduced reporter light, run 1, well a: 10282; activity call: inactive
CG32633 | induced reporter light, run 1, well a: 1.14e5; induced reporter light, run 1, well b: 1.22e5; control promoter light, run 1, well a: 1.04e5; control promoter light, run 1, well b: 1.02e5; uninduced reporter light, run 1, well a: 8265; activity call: inactive
glob1 | induced reporter light, run 1, well a: 2.49e5; induced reporter light, run 1, well b: 2.76e5; control promoter light, run 1, well a: 3.70e5; control promoter light, run 1, well b: 3.78e5; uninduced reporter light, run 1, well a: 16250; activity call: inactive
rgr #1 | induced reporter light, run 1, well a: 1.33e5; induced reporter light, run 1, well b: 1.22e5; control promoter light, run 1, well a: 1.27e5; control promoter light, run 1, well b: 97940; uninduced reporter light, run 1, well a: 10585; activity call: inactive
rgr #2 | induced reporter light, run 1, well a: 83300; induced reporter light, run 1, well b: 97200; control promoter light, run 1, well a: 68950; control promoter light, run 1, well b: 61590; uninduced reporter light, run 1, well a: 6765; activity call: inactive
Muc68D | induced reporter light, run 1, well a: 1.18e5; induced reporter light, run 1, well b: 93225; control promoter light, run 1, well a: 61775; control promoter light, run 1, well b: 34725; uninduced reporter light, run 1, well a: 7738; activity call: inactive
CG14075 | induced reporter light, run 1, well a: 92145; induced reporter light, run 1, well b: 54245; control promoter light, run 1, well a: 61010; control promoter light, run 1, well b: 68905; uninduced reporter light, run 1, well a: 4935; activity call: inactive
Spt6 | induced reporter light, run 1, well a: 27530; induced reporter light, run 1, well b: 23692; control promoter light, run 1, well a: 37910; control promoter light, run 1, well b: 29685; uninduced reporter light, run 1, well a: 2095; activity call: inactive
PolH | induced reporter light, run 1, well a: 1.19e5; induced reporter light, run 1, well b: 1.20e5; control promoter light, run 1, well a: 64310; control promoter light, run 1, well b: 99215; uninduced reporter light, run 1, well a: 10290; activity call: inactive
Rala | induced reporter light, run 1, well a: 1.80e5; induced reporter light, run 1, well b: 2.12e5; control promoter light, run 1, well a: 3.53e5; control promoter light, run 1, well b: 3.34e5; uninduced reporter light, run 1, well a: 12600; activity call: inactive
E5 #1 | induced reporter light, run 1, well a: 20485; induced reporter light, run 1, well b: 21660; control promoter light, run 1, well a: 15650; control promoter light, run 1, well b: 20520; uninduced reporter light, run 1, well a: 3860; activity call: inactive
E5 #2 | induced reporter light, run 1, well a: 14238; induced reporter light, run 1, well b: 13460; control promoter light, run 1, well a: 14288; control promoter light, run 1, well b: 11965; uninduced reporter light, run 1, well a: 2830; activity call: inactive

A run of entries taken from the entries so far:
Rala | induced reporter light, run 1, well a: 1.80e5; induced reporter light, run 1, well b: 2.12e5; control promoter light, run 1, well a: 3.53e5; control promoter light, run 1, well b: 3.34e5; uninduced reporter light, run 1, well a: 12600; activity call: inactive
E5 #1 | induced reporter light, run 1, well a: 20485; induced reporter light, run 1, well b: 21660; control promoter light, run 1, well a: 15650; control promoter light, run 1, well b: 20520; uninduced reporter light, run 1, well a: 3860; activity call: inactive
